Results as given in publication PMC4405365.
No constants are given. Whether binding was seen depends on the method and setting. In cells and extracts the contact can be indirect. Some entries that bind do so weakly or less than the wild type. For part of these data: Tags and fused reporters may be left off the sequences shown.

Amino acid sequences for entries named in this document (tags omitted). Residues count along the entry.
UniProt O88778: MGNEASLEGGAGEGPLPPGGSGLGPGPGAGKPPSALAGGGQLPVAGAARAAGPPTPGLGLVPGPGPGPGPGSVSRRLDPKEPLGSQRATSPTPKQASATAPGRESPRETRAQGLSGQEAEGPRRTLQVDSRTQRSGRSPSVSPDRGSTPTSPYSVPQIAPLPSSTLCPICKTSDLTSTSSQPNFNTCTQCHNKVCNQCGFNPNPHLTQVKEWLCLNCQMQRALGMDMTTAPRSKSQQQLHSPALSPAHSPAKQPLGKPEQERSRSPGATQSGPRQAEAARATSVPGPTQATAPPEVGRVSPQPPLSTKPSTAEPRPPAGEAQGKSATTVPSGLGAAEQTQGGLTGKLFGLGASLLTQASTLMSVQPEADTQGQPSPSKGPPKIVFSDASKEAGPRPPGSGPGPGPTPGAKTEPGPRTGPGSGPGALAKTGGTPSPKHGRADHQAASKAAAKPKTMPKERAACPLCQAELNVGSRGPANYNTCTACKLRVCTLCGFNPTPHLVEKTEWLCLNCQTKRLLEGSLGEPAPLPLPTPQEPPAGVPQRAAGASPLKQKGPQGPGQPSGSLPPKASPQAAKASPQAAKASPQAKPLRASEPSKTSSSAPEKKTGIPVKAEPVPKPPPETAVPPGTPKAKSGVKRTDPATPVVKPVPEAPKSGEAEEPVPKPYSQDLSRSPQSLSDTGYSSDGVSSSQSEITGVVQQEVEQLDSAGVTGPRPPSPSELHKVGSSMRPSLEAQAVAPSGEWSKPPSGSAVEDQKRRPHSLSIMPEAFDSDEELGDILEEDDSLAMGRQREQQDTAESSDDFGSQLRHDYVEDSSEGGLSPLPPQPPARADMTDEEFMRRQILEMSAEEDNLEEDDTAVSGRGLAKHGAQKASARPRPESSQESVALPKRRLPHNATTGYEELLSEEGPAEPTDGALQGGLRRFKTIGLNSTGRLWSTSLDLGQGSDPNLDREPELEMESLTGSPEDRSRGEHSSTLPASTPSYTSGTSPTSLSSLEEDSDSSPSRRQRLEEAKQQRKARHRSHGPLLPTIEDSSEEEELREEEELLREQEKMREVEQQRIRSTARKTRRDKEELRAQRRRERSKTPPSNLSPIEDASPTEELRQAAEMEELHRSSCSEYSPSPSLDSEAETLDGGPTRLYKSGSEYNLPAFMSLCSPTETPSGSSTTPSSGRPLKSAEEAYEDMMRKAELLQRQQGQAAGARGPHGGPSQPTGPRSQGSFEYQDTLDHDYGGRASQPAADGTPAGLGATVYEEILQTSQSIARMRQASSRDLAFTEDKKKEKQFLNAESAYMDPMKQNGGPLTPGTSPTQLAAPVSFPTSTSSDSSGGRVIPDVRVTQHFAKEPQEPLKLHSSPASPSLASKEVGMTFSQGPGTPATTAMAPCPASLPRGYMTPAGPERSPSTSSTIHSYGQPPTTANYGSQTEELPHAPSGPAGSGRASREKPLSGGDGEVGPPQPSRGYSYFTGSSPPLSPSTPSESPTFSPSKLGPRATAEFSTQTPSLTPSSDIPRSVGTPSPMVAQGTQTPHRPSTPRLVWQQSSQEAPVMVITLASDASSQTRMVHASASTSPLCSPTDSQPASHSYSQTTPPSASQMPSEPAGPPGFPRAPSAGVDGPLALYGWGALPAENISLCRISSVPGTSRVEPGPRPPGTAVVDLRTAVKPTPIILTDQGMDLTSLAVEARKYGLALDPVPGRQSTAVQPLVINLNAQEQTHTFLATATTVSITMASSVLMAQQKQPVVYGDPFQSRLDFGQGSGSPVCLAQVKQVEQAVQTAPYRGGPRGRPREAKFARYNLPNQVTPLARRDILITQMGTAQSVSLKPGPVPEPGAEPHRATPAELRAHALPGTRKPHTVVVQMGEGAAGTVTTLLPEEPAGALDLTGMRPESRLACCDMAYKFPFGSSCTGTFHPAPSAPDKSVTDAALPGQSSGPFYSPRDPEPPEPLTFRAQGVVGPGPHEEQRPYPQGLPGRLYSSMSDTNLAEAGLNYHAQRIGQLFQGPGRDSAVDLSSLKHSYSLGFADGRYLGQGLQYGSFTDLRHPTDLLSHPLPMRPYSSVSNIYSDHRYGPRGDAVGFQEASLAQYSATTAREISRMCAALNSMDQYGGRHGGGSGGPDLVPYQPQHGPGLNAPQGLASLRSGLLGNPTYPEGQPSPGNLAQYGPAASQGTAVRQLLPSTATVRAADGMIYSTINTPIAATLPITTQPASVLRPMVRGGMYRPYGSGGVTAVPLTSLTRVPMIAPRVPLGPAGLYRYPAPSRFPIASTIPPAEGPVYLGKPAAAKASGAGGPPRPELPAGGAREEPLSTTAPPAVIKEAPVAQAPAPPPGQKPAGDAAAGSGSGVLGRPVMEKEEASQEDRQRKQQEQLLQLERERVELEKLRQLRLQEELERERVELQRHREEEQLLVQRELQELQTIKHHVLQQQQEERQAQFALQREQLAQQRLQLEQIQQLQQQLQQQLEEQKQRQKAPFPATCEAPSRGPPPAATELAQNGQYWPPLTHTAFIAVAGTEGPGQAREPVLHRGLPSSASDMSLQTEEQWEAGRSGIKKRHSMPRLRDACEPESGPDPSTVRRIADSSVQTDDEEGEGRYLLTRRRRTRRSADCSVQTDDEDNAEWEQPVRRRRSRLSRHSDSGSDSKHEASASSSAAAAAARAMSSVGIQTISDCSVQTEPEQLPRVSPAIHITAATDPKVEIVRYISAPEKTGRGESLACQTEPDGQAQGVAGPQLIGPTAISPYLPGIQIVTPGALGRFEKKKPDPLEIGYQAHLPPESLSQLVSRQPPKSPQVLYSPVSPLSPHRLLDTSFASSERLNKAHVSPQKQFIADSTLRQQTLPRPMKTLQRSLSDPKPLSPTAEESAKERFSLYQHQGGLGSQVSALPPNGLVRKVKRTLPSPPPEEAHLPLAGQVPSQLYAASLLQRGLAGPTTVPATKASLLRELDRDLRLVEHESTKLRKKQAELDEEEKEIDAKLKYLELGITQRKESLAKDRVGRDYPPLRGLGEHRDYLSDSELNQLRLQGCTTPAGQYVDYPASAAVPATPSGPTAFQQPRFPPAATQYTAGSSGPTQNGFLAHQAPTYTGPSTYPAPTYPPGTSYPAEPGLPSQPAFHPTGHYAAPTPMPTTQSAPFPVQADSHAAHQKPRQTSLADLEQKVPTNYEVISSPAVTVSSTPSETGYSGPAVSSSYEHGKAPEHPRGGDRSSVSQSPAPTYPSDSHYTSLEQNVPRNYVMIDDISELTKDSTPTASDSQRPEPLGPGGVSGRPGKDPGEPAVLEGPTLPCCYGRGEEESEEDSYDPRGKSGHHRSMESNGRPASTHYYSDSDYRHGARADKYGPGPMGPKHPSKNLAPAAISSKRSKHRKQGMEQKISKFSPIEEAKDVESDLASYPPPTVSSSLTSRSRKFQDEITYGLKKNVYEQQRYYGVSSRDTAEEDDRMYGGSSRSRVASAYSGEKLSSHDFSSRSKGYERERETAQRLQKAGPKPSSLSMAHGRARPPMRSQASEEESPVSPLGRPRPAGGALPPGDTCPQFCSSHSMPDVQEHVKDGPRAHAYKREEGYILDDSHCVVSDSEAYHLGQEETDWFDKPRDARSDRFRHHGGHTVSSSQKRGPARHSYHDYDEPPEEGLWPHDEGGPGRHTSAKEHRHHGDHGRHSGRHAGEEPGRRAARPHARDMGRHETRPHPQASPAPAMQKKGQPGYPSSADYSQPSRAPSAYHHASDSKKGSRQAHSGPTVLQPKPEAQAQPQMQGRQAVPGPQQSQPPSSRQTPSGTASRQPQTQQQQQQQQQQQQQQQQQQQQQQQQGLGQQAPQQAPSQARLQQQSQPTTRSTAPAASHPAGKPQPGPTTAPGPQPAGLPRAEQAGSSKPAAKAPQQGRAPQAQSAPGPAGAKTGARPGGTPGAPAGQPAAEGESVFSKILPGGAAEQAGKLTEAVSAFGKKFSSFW
UniProt Q8BPM0, residues 428-1076: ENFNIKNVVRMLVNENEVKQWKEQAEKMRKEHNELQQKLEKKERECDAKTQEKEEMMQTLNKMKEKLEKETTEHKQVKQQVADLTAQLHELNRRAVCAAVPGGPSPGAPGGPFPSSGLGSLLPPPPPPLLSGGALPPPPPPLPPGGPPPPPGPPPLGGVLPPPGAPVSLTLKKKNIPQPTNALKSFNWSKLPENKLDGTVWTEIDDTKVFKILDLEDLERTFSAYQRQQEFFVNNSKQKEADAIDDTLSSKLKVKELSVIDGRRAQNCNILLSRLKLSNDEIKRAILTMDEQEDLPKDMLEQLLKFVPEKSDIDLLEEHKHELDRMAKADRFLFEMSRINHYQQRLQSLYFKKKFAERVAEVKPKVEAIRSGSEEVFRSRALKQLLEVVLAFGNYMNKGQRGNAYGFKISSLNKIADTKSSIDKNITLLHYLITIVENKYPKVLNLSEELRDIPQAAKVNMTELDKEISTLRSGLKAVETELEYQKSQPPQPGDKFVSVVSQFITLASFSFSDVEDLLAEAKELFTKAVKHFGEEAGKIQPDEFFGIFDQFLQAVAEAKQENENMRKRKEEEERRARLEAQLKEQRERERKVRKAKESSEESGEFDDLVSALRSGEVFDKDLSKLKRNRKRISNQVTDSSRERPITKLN
UniProt P07825: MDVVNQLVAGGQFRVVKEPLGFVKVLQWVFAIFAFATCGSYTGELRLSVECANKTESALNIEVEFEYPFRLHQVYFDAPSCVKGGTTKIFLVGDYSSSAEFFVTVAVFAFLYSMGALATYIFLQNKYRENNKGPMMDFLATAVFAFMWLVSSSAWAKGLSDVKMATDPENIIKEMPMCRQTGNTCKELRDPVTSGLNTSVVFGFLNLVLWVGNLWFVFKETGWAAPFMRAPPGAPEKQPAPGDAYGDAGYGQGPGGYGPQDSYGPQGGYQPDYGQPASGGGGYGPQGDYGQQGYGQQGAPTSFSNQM

Assays:
[1] = target: Piccolo (rat (endogenous in P4 rat brain)) (UniProt Q9JKS6); experiment: co-IP; Piccolo precipitated with a rabbit polyclonal antibody against Piccolo residues 1980-2553 and Protein A/G beads from the P2 light membrane fraction of P4 rat brain solubilised in 1x PBS with 1% Triton X-100, 4°C; Western blot; normal rabbit IgG as control
EGFP-Pclo_(1980-2553) = target: T1, EGFP-Pclo_(1980-2553) (UniProt Q9JKS6); experiment: co-IP; COS7 cells co-transfected, lysed in 1% Triton X-100 in 1X PBS with protease inhibitors, 4°C; EGFP antibody or Piccolo 1980-2553 antibody with Protein A/G; Western blot
T1 sequence: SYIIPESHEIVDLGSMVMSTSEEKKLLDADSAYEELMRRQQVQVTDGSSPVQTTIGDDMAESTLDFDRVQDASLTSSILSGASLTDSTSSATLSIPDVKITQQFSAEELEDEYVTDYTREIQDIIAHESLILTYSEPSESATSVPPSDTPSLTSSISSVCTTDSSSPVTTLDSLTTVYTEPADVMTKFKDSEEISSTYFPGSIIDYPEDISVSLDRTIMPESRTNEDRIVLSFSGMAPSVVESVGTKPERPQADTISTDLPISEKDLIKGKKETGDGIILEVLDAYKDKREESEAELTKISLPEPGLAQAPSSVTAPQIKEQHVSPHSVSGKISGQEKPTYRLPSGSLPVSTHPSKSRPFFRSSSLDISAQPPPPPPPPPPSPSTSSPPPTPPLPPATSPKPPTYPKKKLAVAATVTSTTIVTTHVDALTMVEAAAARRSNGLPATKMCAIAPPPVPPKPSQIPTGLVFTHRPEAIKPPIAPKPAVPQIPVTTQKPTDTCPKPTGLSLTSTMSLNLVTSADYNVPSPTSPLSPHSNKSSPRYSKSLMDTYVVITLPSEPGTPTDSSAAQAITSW

Bassoon (from UniProt O88778 1-3938) was tested, and the binding [1] was “binds”.
“Myc-C-Daam1 (from UniProt Q8BPM0 428-1076) (domain or fragment)” was tested, and the binding (EGFP-Pclo_(1980-2553)) was “binds”.
“Synaptophysin (from UniProt P07825 1-307)” was tested, and the binding [1] was “no binding”.
